In all, about 230,000 compounds went through this assay and about 310 (0.13%) were called active. The inconclusive results got no clear call from the source; some entries with a clear call stand among them for comparison. The call rests on the fitted dose curve; in most records, active means well fitted activation curve with a large enough effect; inconclusive means small, poorly fitted or top-dose-only effect; inactive means no such curve, though single readings can be large or run the other way. Potencies beside an inconclusive call are fits to weak or partial responses and may not hold up.
Assay: qHTS Multiplex Assay to Identify Dual Action Probes in a Cell Model of Huntington: Cytoprotection (ATP); further: nearly all actives have a fitted effect of over 45% in size;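 on cytoprotection (ATP increase): toxic huntingtin expression switched on by the ecdysone agonist tebufenozide; % of control where 0% means no effect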
Settings: PC12 HTT-Q103 induced, ATP luminescence, 40 h; cytoprotection (ATP increase): at 56.4 µM (top of the series) unless noted
Source text: NIH Chemical Genomics Center [NCGC]
NIH Molecular Libraries Probe Production centers Network [MLPCN]
Assay Submitter (PI): Wei Zheng
Huntington's disease is a neurodegenerative disorder caused by a trinucleotide repeat expansion in Exon 1 of the Huntingtin gene. The CAG trinucleotide encodes glutamine and polyglutamine expansions cause cell death in selective areas of the brain. Huntington polyglutamine repeats have the tendency to form aggregates which are observable in later stages of the disease. The exact nature of the aggregates, whether toxic, protective, or insignificant, is unclear.
A stable PC12 cell line containing a gene fusion of Exon 1 of the Huntingtin gene linked to GFP under the control of the inducible ecdysone promoter were used as the cell-based model of Huntington Disease for high throughput screening. Exon 1 of the Huntingtin gene contained an expansion of 103 polyglutamines (Q103) which, when expressed, caused cell death and distinct, bright GFP aggregates. The amount of cell death and the size and intensity of GFP aggregates increased over time and induction level. The cell death were quantified with a measurement of ATP content in the cells. A maximal 40-50% of cell death was observed when the Huntington gene was induced in this cell line.
We optimized this assay in a homogeneous 1536 well format. A quantitative high throughput screen (qHTS) was conducted on the PC12 cells which were induced to express the toxic fusion construct. Small molecules which prevented cell death were identified by using a luminescent ATP quantification method (Perkin Elmer's ATPlite).
PC12 cells stably containing a construct with an ecdysone inducible promoter expressing GFP fused to the exon 1 of HTTQ103 (Huntington protein which containing a 103 ployglutamine expansion) were used.
NCGC Assay Protocol Summary:
Sequence, Parameter, Description
1, Reagent, 5 uL 1500 cells/well 1536 TC treated White clear bottom plate
2, Compound, 23 nL Tebufenozide inducer (100 nM final) to all columns
3, Compound, 23 nL 40 uM to 0.5 nM Libraries
5, Reagent, 5 ul ATPLite cell death assay reagent
6, Detector, 4 sec integration with a Viewlux Luminescent
Media consisted of phenol red free DMEM + 5% equine serum (Hyclone # SH30072.03 ), 5% supplemented Bovine Calf Serum (Hyclone # SH30074.03 ), 1x pen/strep, no G418
Control columns: 1 = DMSO, 2= 2 uM teb dilns (1:1), 4 = 100 nM Teb inducer. Sample columns received 100 nM Teb.
Potency means the concentration at half of the fitted maximal effect.

| Compound | Potency | cytoprotection (ATP increase) |
| --- | --- | --- |
| Fc1ccc(NC(=S)N2CCOCC2)cc1Cl | inconclusive: 355 nM [activator, full curve, poor fit] | – |
| COC(=O)c1ccc(CSCC(=O)Nc2cc(OC)cc(OC)c2)o1 | inconclusive: 5620 nM [activator, single point] | – |
| Cc1ccc(C)c2[nH]c(=O)c(CCNC(=O)c3ccco3)cc12 | – | inactive: -16.9% |
| Cc1ccc(N/N=C(\Cc2nc3ccccc3[nH]2)c2ccccc2)cc1 | – | inactive: -0.0656% [at 1.9 µM] |
| CCCCCn1c(C(Cc2ccccc2)NC(=O)COC)nc2ccccc21 (stereo not given) | inconclusive: 4470 nM [activator, single point] | – |
| CCCCC/C=C\C/C=C\C/C=C\C/C=C\CCCC(=O)O[C@H](COCCCCCCCCCCCCCCCC)COP(=O)([O-])OCC[N+](C)(C)C | inconclusive: 31600 nM [activator, single point] | – |
| C/C(=N\NC(=O)c1cc(-c2ccccn2)nc2ccccc12)c1cccc([N+](=O)[O-])c1 | inconclusive: 100 nM [activator, full curve, poor fit] | – |
| O=c1c2c(nc3nc(NCc4cccc(Cl)c4)[nH]n13)CCC2 | inconclusive: 1120 nM [activator, partial curve] | – |
| CC(=O)c1cc(F)c(N2CCN(C(=O)COc3ccccc3F)CC2)cc1C | inconclusive: 3160 nM [activator, partial curve] | – |
| O=C(C1CCN(c2ncnc3c2sc2cccc(F)c23)CC1)N1CCCC1 | – | inactive: -1.84% [at 10 µM] |
| Cc1cnc(NC(=O)c2cc3c(C)nn(Cc4ccccc4Cl)c3s2)s1 | inconclusive: 1260 nM [activator, single point] | – |
| COCCNC(=O)c1onc(CSc2cc(C)cc(C)c2)c1C(=O)NCCOC | inconclusive: 1260 nM [activator, single point] | – |
| CC(CC(=O)O)C(=O)c1ccc(Cl)c([N+](=O)[O-])c1 (stereo not given) | inconclusive: 5620 nM [activator, single point] | – |
| COc1ccccc1NS(=O)(=O)c1ccc(N/N=C/c2c(C)nn(-c3ccccc3)c2N2CCCC2)c([N+](=O)[O-])c1 | – | inactive: 5.82% [at 10 µM] |
| O=C(O)c1ccccc1-c1ccc(C(F)(F)F)cc1 | inconclusive: 35500 nM [activator, single point] | – |
| O=C(Nc1ccc(O)cc1)c1ccc2c(c1)C(=O)N(Cc1ccco1)C2=O | – | inactive: 13.7% [at 10 µM] |
| COc1ccc(C(=O)Nc2cccc(-c3nc4ncccc4o3)c2C)cc1OC | – | inactive: 4.97% |
| Cc1nn(CC(=O)NCCN2CCOCC2)c(C)c1[N+](=O)[O-] | inconclusive: 25100 nM [activator, single point] | – |

| Compound | Potency | cytoprotection (ATP increase) |
| --- | --- | --- |
| Cc1cc(C)n(-c2nc(NC(C)(C)C)nc(NC(C)(C)C)n2)n1 | – | inactive: -4.94% |
| CC(=O)Nc1ccc(OS(=O)(=O)c2ccc([N+](=O)[O-])cc2)cc1 | inconclusive: 794 nM [activator, single point] | – |
| O=C(c1cccc(F)c1)N1CCC[C@@]2(CCN(Cc3ccccc3)C2)C1 | inconclusive: 39800 nM [activator, single point] | – |
| CO/N=C/NC(=O)c1ccc([N+](=O)[O-])c(CS(=O)(=O)c2ccc(Cl)cc2)c1 | – | inactive: -0.879% |
| COC(CNS(=O)(=O)c1cccc2nonc12)OC | – | inactive: 3.05% |
| COC(=O)NC(NC(=S)Nc1ccccc1OC)C(Cl)(Cl)Cl (stereo not given) | – | inactive: 7.07% [at 10 µM] |
| COc1ccccc1NS(=O)(=O)c1ccc(NN=C2CCCC2)c([N+](=O)[O-])c1 | inconclusive: 794 nM [activator, single point] | – |
| Cc1cc(C)c2c(N)c(S(=O)c3ccc(C(C)(C)C)cc3)sc2n1 (stereo not given) | – | inactive: 23% |
| CCOc1ccc(NS(=O)(=O)c2ccc3c(c2)CCN3C(=O)CCC(=O)O)cc1 | – | inactive: -8.12% |
| CCS(=O)(=O)CCn1c([N+](=O)[O-])cnc1C | inconclusive: 3160 nM [activator, single point] | – |
| Cc1noc(C)c1-c1nc(NC2CCNCC2)c2ccccc2n1 | – | inactive: -0.798% |
| O=C(c1cc2sccc2n1Cc1ccc(F)cc1)N1CCN(c2nc3ccccc3s2)CC1 | inconclusive: 1260 nM [activator, single point] | – |
| CCNc1ncc2nc(C)c(=O)n(C[C@H]3CCCO3)c2n1 | inconclusive: 5620 nM [activator, single point] | – |
| CC(C)(C)OC(=O)N/N=C/c1ccc(N2CCOCC2)s1 | – | inactive: 23.6% [at 10 µM] |
| N[C@H](Cc1ccc(Cl)cc1)C(=O)O | inconclusive: 6.3 nM [activator, full curve, poor fit] | – |
| COc1cc(/C=N/NC(=S)Nc2cccc(S(=O)(=O)N(C)C)c2)cc(OC)c1O | inconclusive: 1000 nM [activator, single point] | – |
| COc1ccc(CCN2C(=O)CC(N3CCOCC3)C2=O)cc1 (stereo not given) | active: 1260 nM | – |

2 successive compounds already listed, for reference:

| Compound | Potency | cytoprotection (ATP increase) |
| --- | --- | --- |
| O=C(c1cc2sccc2n1Cc1ccc(F)cc1)N1CCN(c2nc3ccccc3s2)CC1 | inconclusive: 1260 nM [activator, single point] | – |
| CCNc1ncc2nc(C)c(=O)n(C[C@H]3CCCO3)c2n1 | inconclusive: 5620 nM [activator, single point] | – |

Source: PubChem BioAssay AID1471 (National Center for Advancing Translational Sciences (NCATS), 2008)
